Assay results taken from doi:10.1101/596536.
These are yes or no findings as the source states them, for the method shown. Some binding calls cover weakened binding; strength is not graded here.

How the values were obtained:
[1] = biological target: Pl-TcdA1-D965A-R1971A (P. luminescens) (UniProt Q9RN43); assay: negative stain EM
[2] = biological target: Pl-TcdA1-E158A-R1873A (P. luminescens) (UniProt Q9RN43); assay: negative stain EM
[3] = biological target: Pl-TcdA1-E1086A-R1166A (P. luminescens) (UniProt Q9RN43); assay: negative stain EM
[4] = biological target: Pl-TcdA1-H1202A (P. luminescens) (UniProt Q9RN43); assay: negative stain EM
[5] = biological target: Pl-TcdA1-Y1168F-Y1205F (P. luminescens) (UniProt Q9RN43); assay: negative stain EM
[6] = biological target: TcdB2-TccC3 from Photorhabdus luminescens (Pl-TcdB2-TccC3) (P. luminescens) (UniProt Q8GF99); assay: SEC + other: negative stain EM

## Pl-TcdA1-D965A-R1971A (from UniProt Q9RN43 1-2516)
[1]
  binding: binds

## Pl-TcdA1-E158A-R1873A (from UniProt Q9RN43 1-2516)
[2]
  binding: binds

## Pl-TcdA1-E1086A-R1166A (from UniProt Q9RN43 1-2516)
[3]
  binding: binds

## Pl-TcdA1-H1202A (from UniProt Q9RN43 1-2516)
[4]
  binding: binds

## Pl-TcdA1-Y1168F-Y1205F (from UniProt Q9RN43 1-2516)
[5]
  binding: binds

## TcdA1 from Photorhabdus luminescens (Pl-TcdA1) (from UniProt Q9RN43 1-2516)
[6]
  binding: binds
